Common to all, as to assay: co-IP
One test deals with T1, Wnt11 (UniProt O96014).
T1 sequence: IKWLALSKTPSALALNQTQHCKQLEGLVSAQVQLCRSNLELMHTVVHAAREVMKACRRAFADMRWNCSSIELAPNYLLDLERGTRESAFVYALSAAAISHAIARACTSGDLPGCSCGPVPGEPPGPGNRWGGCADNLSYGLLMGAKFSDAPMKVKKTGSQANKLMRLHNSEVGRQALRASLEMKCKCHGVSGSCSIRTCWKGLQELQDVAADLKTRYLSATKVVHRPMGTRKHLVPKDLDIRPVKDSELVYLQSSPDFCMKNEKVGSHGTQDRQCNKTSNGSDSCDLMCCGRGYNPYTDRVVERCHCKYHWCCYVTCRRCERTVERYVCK

Chains of the proteins cited; added tags and fusions are not shown. Residues count along the entry.
UniProt P56703, residues 22-355: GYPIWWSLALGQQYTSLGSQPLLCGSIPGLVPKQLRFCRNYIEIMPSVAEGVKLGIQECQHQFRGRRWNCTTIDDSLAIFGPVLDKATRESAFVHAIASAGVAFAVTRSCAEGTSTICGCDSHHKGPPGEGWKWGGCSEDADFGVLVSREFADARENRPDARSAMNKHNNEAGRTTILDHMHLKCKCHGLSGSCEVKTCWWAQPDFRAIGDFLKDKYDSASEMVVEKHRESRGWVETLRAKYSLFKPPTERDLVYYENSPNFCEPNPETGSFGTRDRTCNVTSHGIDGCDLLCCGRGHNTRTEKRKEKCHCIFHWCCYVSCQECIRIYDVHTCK

The target in a further test is T2, Wnt11-V5 (UniProt O96014).
T2 sequence: T1 sequence

The target of a further test is T3, Wnt11^N40Q (UniProt O96014).
T3 sequence: T1 sequence with N16Q

For another test, the target named is Wnt3 (UniProt P56703).

Substitutions are numbered along the chain they refer to. No constants are given. Whether binding was seen depends on the method and setting. In cells and extracts the contact can be indirect. Some results given as binding are weak or reduced against the parent protein; the word gives no strength. For some assays here: Where a sequence is shown, tags or fusion partners need not be part of it.

B1: FZD6 (receptor, UniProt O60353 19-706)
chain: HSLFTCEPITVPRCMKMAYNMTFFPNLMGHYDQSIAAVEMEHFLPLANLECSPNIETFLCKAFVPTCIEQIHVVPPCRKLCEKVYSDCKKLIDTFGIRWPEELECDRLQYCDETVPVTFDPHTEFLGPQKKTEQVQRDIGFWCPRHLKTSGGQGYKFLGIDQCAPPCPNMYFKSDELEFAKSFIGTVSIFCLCATLFTFLTFLIDVRRFRYPERPIIYYSVCYSIVSLMYFIGFLLGDSTACNKADEKLELGDTVVLGSQNKACTVLFMLLYFFTMAGTVWWVILTITWFLAAGRKWSCEAIEQKAVWFHAVAWGTPGFLTVMLLAMNKVEGDNISGVCFVGLYDLDASRYFVLLPLCLCVFVGLSLLLAGIISLNHVRQVIQHDGRNQEKLKKFMIRIGVFSGLYLVPLVTLLGCYVYEQVNRITWEITWVSDHCRQYHIPCPYQAKAKARPELALFMIKYLMTLIVGISAVFWVGSKKTCTEWAGFFKRNRKRDPISESRRVLQESCEFFLKHNSKVKHKKKHYKPSSHKLKVISKSMGTSTGATANHGTSAVAITSHDYLGQETLTEIQTSPETSMREVKADGASTPRLREQDCGEPASPAASISRLSGEQVDGKGQAGSVSESARSEGRISPKSDITDTGLAQSNNLQVPSSSEPSSLKGSTSLLVHPVSGVRKEQGGGCHSDT
For the molecule B1, in the test with Wnt11, the binding result is recorded as “binds”.

B2: Evi/Wls (receptor, UniProt Q5T9L3 1-541)
chain: MAGAIIENMSTKKLCIVGGILLVFQIIAFLVGGLIAPGPTTAVSYMSVKCVDARKNHHKTKWFVPWGPNHCDKIRDIEEAIPREIEANDIVFSVHIPLPHMEMSPWFQFMLFILQLDIAFKLNNQIRENAEVSMDVSLAYRDDAFAEWTEMAHERVPRKLKCTFTSPKTPEHEGRYYECDVLPFMEIGSVAHKFYLLNIRLPVNEKKKINVGIGEIKDIRLVGIHQNGGFTKVWFAMKTFLTPSIFIIMVWYWRRITMMSRPPVLLEKVIFALGISMTFINIPVEWFSIGFDWTWMLLFGDIRQGIFYAMLLSFWIIFCGEHMMDQHERNHIAGYWKQVGPIAVGSFCLFIFDMCERGVQLTNPFYSIWTTDIGTELAMAFIIVAGICLCLYFLFLCFMVFQVFRNISGKQSSLPAMSKVRRLHYEGLIFRFKFLMLITLACAAMTVIFFIVSQVTEGHWKWGGVTVQVNSAFFTGIYGMWNLYVFALMFLYAPSHKNYGEDQSNGDLGVHSGEELQLTTTITHVDGPTEIYKLTRKEAQE
Turning to B2, the binding entry with Wnt11, in the test with Wnt11-V5, with Wnt11^N40Q and with Wnt3 was “binds” in each case.

The values above are taken from doi:10.1101/2025.07.02.662750.
